Laboratory results: PubChem BioAssay (NCATS)
Inconclusive means that the source gave no clear call. Such entries were picked first, then a sample of the others. Potencies beside an inconclusive call are fits to weak or partial responses and may not hold up. The source made the active and inactive calls. Calls come from the whole dose curve; as a rule, active = well fitted curve in the direction sought with a large enough effect; inconclusive = small, poorly fitted or top-dose-only effect, or another doubt; inactive = no such curve, though single readings can be large; an effect the other way counts as inactive or inconclusive.

Sequences of proteins named here, by UniProt entry; tags and fusion partners are left off. A change or cut given only in a name is not applied to a line headed by its entry.
UniProt P00784: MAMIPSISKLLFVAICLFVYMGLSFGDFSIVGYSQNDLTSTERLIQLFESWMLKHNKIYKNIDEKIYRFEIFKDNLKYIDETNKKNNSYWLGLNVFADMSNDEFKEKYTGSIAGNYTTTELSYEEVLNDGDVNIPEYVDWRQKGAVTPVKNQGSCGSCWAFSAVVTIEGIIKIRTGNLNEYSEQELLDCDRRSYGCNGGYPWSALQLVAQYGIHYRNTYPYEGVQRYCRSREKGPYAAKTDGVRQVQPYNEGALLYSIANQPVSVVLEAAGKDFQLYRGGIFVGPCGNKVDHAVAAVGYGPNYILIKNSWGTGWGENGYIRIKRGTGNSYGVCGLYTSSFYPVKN
UniProt C7C422: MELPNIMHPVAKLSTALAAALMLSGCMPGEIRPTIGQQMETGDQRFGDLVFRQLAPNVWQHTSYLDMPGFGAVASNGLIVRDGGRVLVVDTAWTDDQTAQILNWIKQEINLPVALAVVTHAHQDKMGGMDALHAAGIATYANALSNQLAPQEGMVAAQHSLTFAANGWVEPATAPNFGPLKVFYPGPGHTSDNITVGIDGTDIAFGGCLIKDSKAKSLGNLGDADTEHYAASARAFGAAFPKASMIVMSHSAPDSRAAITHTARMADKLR

Each compound was assayed against Papain (Carica papaya) (UniProt P00784) (assay: Primary qHTS assay for inhibitors of the protease papain (AID 1645873;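 note: papain turnover of Z-FR-AMC read as the AMC fluorescence gain over 10 min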)). Conditions: papain Z-FR-AMC cleavage, AMC fluorescence; series mostly up to 49.8 µM; activity change, negative = inhibition: at the top concentration.
% is set by controls: 0 for no effect and ±100 for the full control effect; potency is the fitted concentration of half-maximal effect.

SMILES	Potency	activity change, negative = inhibition
CC(=O)[C@H]1CCC2C3CC=C4C[C@@H](OS(=O)(=O)O)CC[C@]4(C)C3CC[C@@]21C (some centres undefined)	active: 28.2 µM	
CO/N=C(\C(=O)N[C@@H]1C(=O)N2C(C(=O)O)=C(CSc3nc(=O)c(O)nn3C)CSC12)c1csc(N)n1 (some centres undefined)	inconclusive: 20 µM [inhibitor, single point]	
COc1cc2c(CCNC(C)=O)c[nH]c2cc1O		inactive: -17.7%
NCC(O)c1ccc(O)c(O)c1 (centres undefined)	inconclusive: 12.6 µM [inhibitor, partial curve]	
CC(N)(Cc1ccc(O)c(O)c1)C(=O)O (centres undefined)	inconclusive: 12.6 µM [inhibitor, partial curve]	
NCCCNCCCCNCCCN		inactive: 0.99%

Part of the list above in order of heavy-atom count, ascending:
SMILES	Potency	activity change, negative = inhibition
NCCCNCCCCNCCCN		inactive: 0.99%
CC(N)(Cc1ccc(O)c(O)c1)C(=O)O (centres undefined)	inconclusive: 12.6 µM [inhibitor, partial curve]	
COc1cc2c(CCNC(C)=O)c[nH]c2cc1O		inactive: -17.7%

These compounds were tested against Metallo-beta-lactamase type 2 (Klebsiella pneumoniae) (UniProt C7C422) (assay: qHTS to identify inhibitors of the New Delhi Metallo-beta-lactamase (NDM): assay validation screen against the NCATS LOPAC Collection (AID 1794843;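 for activity change, negative = inhibition: nitrocefin turnover by NDM-1 measured as 485 nm absorbance at plateau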)). Conditions: NDM-1 enzyme, nitrocefin hydrolysis, absorbance 485 nm; series mostly up to 38.4 µM; activity change, negative = inhibition: at the top concentration.
Outline: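 NDM-1 at 2 nM final in 50 mM HEPES pH 7.0 with 1 uM ZnSO4 and 0.01% Tween20 was preincubated with library compounds in DMSO. Nitrocefin (50 uM stock) was then added, and absorbance at 485 nm was read at the kinetic plateau.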

SMILES	activity change, negative = inhibition	Potency
Cc1nc2n(c(=O)c1CCN1CCC(c3noc4cc(F)ccc34)CC1)CCCC2O (centres undefined)	inactive: -8.51%	
CSc1nc(N)c2ncn([C@@H]3O[C@H](COP(=O)(O)OP(=O)(O)OP(=O)(O)O)[C@@H](O)[C@H]3O)c2n1		inconclusive: 7.94 µM [inhibitor, partial curve]
CC(N)(Cc1ccc(O)c(O)c1)C(=O)O (centres undefined)		inconclusive: 11.2 µM [inhibitor, partial curve]
